Laboratory results as given in publication PMC8674265.
Results are given in words; binding and its absence hold for the method and conditions named. Binding seen in cells or lysates may run through a third protein. A yes stands for co-enrichment or nearness to the bait. Other partners may have been found.

B1: DROSHA (protein, UniProt Q9NRR4 1-1374)
chain: MMQGNTCHRMSFHPGRGCPRGRGGHGARPSAPSFRPQNLRLLHPQQPPVQYQYEPPSAPSTTFSNSPAPNFLPPRPDFVPFPPPMPPSAQGPLPPCPIRPPFPNHQMRHPFPVPPCFPPMPPPMPCPNNPPVPGAPPGQGTFPFMMPPPSMPHPPPPPVMPQQVNYQYPPGYSHHNFPPPSFNSFQNNPSSFLPSANNSSSPHFRHLPPYPLPKAPSERRSPERLKHYDDHRHRDHSHGRGERHRSLDRRERGRSPDRRRQDSRYRSDYDRGRTPSRHRSYERSRERERERHRHRDNRRSPSLERSYKKEYKRSGRSYGLSVVPEPAGCTPELPGEIIKNTDSWAPPLEIVNHRSPSREKKRARWEEEKDRWSDNQSSGKDKNYTSIKEKEPEETMPDKNEEEEEELLKPVWIRCTHSENYYSSDPMDQVGDSTVVGTSRLRDLYDKFEEELGSRQEKAKAARPPWEPPKTKLDEDLESSSESECESDEDSTCSSSSDSEVFDVIAEIKRKKAHPDRLHDELWYNDPGQMNDGPLCKCSAKARRTGIRHSIYPGEEAIKPCRPMTNNAGRLFHYRITVSPPTNFLTDRPTVIEYDDHEYIFEGFSMFAHAPLTNIPLCKVIRFNIDYTIHFIEEMMPENFCVKGLELFSLFLFRDILELYDWNLKGPLFEDSPPCCPRFHFMPRFVRFLPDGGKEVLSMHQILLYLLRCSKALVPEEEIANMLQWEELEWQKYAEECKGMIVTNPGTKPSSVRIDQLDREQFNPDVITFPIIVHFGIRPAQLSYAGDPQYQKLWKSYVKLRHLLANSPKVKQTDKQKLAQREEALQKIRQKNTMRREVTVELSSQGFWKTGIRSDVCQHAMMLPVLTHHIRYHQCLMHLDKLIGYTFQDRCLLQLAMTHPSHHLNFGMNPDHARNSLSNCGIRQPKYGDRKVHHMHMRKKGINTLINIMSRLGQDDPTPSRINHNERLEFLGDAVVEFLTSVHLYYLFPSLEEGGLATYRTAIVQNQHLAMLAKKLELDRFMLYAHGPDLCRESDLRHAMANCFEALIGAVYLEGSLEEAKQLFGRLLFNDPDLREVWLNYPLHPLQLQEPNTDRQLIETSPVLQKLTEFEEAIGVIFTHVRLLARAFTLRTVGFNHLTLGHNQRMEFLGDSIMQLVATEYLFIHFPDHHEGHLTLLRSSLVNNRTQAKVAEELGMQEYAITNDKTKRPVALRTKTLADLLESFIAALYIDKDLEYVHTFMNVCFFPRLKEFILNQDWNDPKSQLQQCCLTLRTEGKEPDIPLYKTLQTVGPSHARTYTVAVYFKGERIGCGKGPSIQQAEMGAAMDALEKYNFPQMAHQKRFIERKYRQELKEMRWEREHQEREPDETEDIKK
B2: NOP58 (protein, UniProt Q9Y2X3 1-529)
chain: MLVLFETSVGYAIFKVLNEKKLQEVDSLWKEFETPEKANKIVKLKHFEKFQDTAEALAAFTALMEGKINKQLKKVLKKIVKEAHEPLAVADAKLGGVIKEKLNLSCIHSPVVNELMRGIRSQMDGLIPGVEPREMAAMCLGLAHSLSRYRLKFSADKVDTMIVQAISLLDDLDKELNNYIMRCREWYGWHFPELGKIISDNLTYCKCLQKVGDRKNYASAKLSELLPEEVEAEVKAAAEISMGTEVSEEDICNILHLCTQVIEISEYRTQLYEYLQNRMMAIAPNVTVMVGELVGARLIAHAGSLLNLAKHAASTVQILGAEKALFRALKSRRDTPKYGLIYHASLVGQTSPKHKGKISRMLAAKTVLAIRYDAFGEDSSSAMGVENRAKLEARLRTLEDRGIRKISGTGKALAKTEKYEHKSEVKTYDPSGDSTLPTCSKKRKIEQVDKEDEITEKKAKKAKIKVKVEEEEEEKVAEEEETSVKKKKKRGKKKHIKEEPLSEEEPCTSTAIASPEKKKKKKKKRENED
B3: NHP2 (protein, UniProt Q9NX24 1-153)
chain: MTKIKADPDGPEAQAEACSGERTYQELLVNQNPIAQPLASRRLTRKLYKCIKKAVKQKQIRRGVKEVQKFVNKGEKGIMVLAGDTLPIEVYCHLPVMCEDRNLPYVYIPSKTDLGAAAGSKRPTCVIMVKPHEEYQEAYDECLEEVQSLPLPL
B4: polynucleotide 5′-kinase, NOL9 (protein, UniProt Q5SY16 1-702)
chain: MADSGLLLKRGSCRSTWLRVRKARPQLILSRRPRRRLGSLRWCGRRRLRWRLLQAQASGVDWREGARQVSRAAAARRPNTATPSPIPSPTPASEPESEPELESASSCHRPLLIPPVRPVGPGRALLLLPVEQGFTFSGICRVTCLYGQVQVFGFTISQGQPAQDIFSVYTHSCLSIHALHYSQPEKSKKELKREARNLLKSHLNLDDRRWSMQNFSPQCSIVLLEHLKTATVNFITSYPGSSYIFVQESPTPQIKPEYLALRSVGIRREKKRKGLQLTESTLSALEELVNVSCEEVDGCPVILVCGSQDVGKSTFNRYLINHLLNSLPCVDYLECDLGQTEFTPPGCISLLNITEPVLGPPFTHLRTPQKMVYYGKPSCKNNYENYIDIVKYVFSAYKRESPLIVNTMGWVSDQGLLLLIDLIRLLSPSHVVQFRSDHSKYMPDLTPQYVDDMDGLYTKSKTKMRNRRFRLAAFADALEFADEEKESPVEFTGHKLIGVYTDFAFRITPRNRESHNKILRDLSILSYLSQLQPPMPKPLSPLHSLTPYQVPFNAVALRITHSDVAPTHILYAVNASWVGLCKIQDDVRGYTNGPILLAQTPICDCLGFGICRGIDMEKRLYHILTPVPPEELRTVNCLLVGAIAIPHCVLKCQRGIEGTVPYVTTDYNFKLPGASEKIGAREPEEAHKEKPYRRPKFCRKMK
B5: YTHDC2 (protein, UniProt Q9H6S0 1-1430)
chain: MSRPSSVSPRQPAPGGGGGGGPSPCGPGGGGRAKGLKDIRIDEEVKIAVNIALERFRYGDQREMEFPSSLTSTERAFIHRLSQSLGLVSKSKGKGANRYLTVKKKDGSETAHAMMTCNLTHNTKHAVRSLIQRFPVTNKERTELLPKTERGNVFAVEAENREMSKTSGRLNNGIPQIPVKRGESEFDSFRQSLPVFEKQEEIVKIIKENKVVLIVGETGSGKTTQIPQFLLDDCFKNGIPCRIFCTQPRRLAAIAVAERVAAERRERIGQTIGYQIRLESRVSPKTLLTFCTNGVLLRTLMAGDSTLSTVTHVIVDEVHERDRFSDFLLTKLRDLLQKHPTLKLILSSAALDVNLFIRYFGSCPVIYIQGRPFEVKEMFLEDILRTTGYTNKEMLKYKKEKQQEEKQQTTLTEWYSAQENSFKPESQRQRTVLNVTDEYDLLDDGGDAVFSQLTEKDVNCLEPWLIKEMDACLSDIWLHKDIDAFAQVFHLILTENVSVDYRHSETSATALMVAAGRGFASQVEQLISMGANVHSKASNGWMALDWAKHFGQTEIVDLLESYSATLEFGNLDESSLVQTNGSDLSAEDRELLKAYHHSFDDEKVDLDLIMHLLYNICHSCDAGAVLIFLPGYDEIVGLRDRILFDDKRFADSTHRYQVFMLHSNMQTSDQKKVLKNPPAGVRKIILSTNIAETSITVNDVVFVIDSGKVKEKSFDALNFVTMLKMVWISKASAIQRKGRAGRCRPGICFRLFSRLRFQNMLEFQTPELLRMPLQELCLHTKLLAPVNCPIADFLMKAPEPPPALIVRNAVQMLKTIDAMDTWEDLTELGYHLADLPVEPHLGKMVLCAVVLKCLDPILTIACTLAYRDPFVLPTQASQKRAAMLCRKRFTAGAFSDHMALLRAFQAWQKARSDGWERAFCEKNFLSQATMEIIIGMRTQLLGQLRASGFVRARGGGDIRDVNTNSENWAVVKAALVAGMYPNLVHVDRENLVLTGPKEKKVRFHPASVLSQPQYKKIPPANGQAAAIKALPTDWLIYDEMTRAHRIANIRCCSAVTPVTILVFCGPARLASNALQEPSSFRVDGIPNDSSDSEMEDKTTANLAALKLDEWLHFTLEPEAASLLLQLRQKWHSLFLRRMRAPSKPWSQVDEATIRAIIAVLSTEEQSAGLQQPSGIGQRPRPMSSEELPLASSWRSNNSRKSSADTEFSDECTTAERVLMKSPSPALHPPQKYKDRGILHPKRGTEDRSDQSSLKSTDSSSYPSPCASPSPPSSGKGSKSPSPRPNMPVRYFIMKSSNLRNLEISQQKGIWSTTPSNERKLNRAFWESSIVYLVFSVQGSGHFQGFSRMSSEIGREKSQDWGSAGLGGVFKVEWIRKESLPFQFAHHLLNPWNDNKKVQISRDGQELEPLVGEQLLQLWERLPLGEKNTTD
B6: NOP2 (protein, UniProt P46087 1-812)
chain: MGRKLDPTKEKRGPGRKARKQKGAETELVRFLPAVSDENSKRLSSRARKRAAKRRLGSVEAPKTNKSPEAKPLPGKLPKGISAGAVQTAGKKGPQSLFNAPRGKKRPAPGSDEEEEEEDSEEDGMVNHGDLWGSEDDADTVDDYGADSNSEDEEEGEALLPIERAARKQKAREAAAGIQWSEEETEDEEEEKEVTPESGPPKVEEADGGLQINVDEEPFVLPPAGEMEQDAQAPDLQRVHKRIQDIVGILRDFGAQREEGRSRSEYLNRLKKDLAIYYSYGDFLLGKLMDLFPLSELVEFLEANEVPRPVTLRTNTLKTRRRDLAQALINRGVNLDPLGKWSKTGLVVYDSSVPIGATPEYLAGHYMLQGASSMLPVMALAPQEHERILDMCCAPGGKTSYMAQLMKNTGVILANDANAERLKSVVGNLHRLGVTNTIISHYDGRQFPKVVGGFDRVLLDAPCSGTGVISKDPAVKTNKDEKDILRCAHLQKELLLSAIDSVNATSKTGGYLVYCTCSITVEENEWVVDYALKKRNVRLVPTGLDFGQEGFTRFRERRFHPSLRSTRRFYPHTHNMDGFFIAKFKKFSNSIPQSQTGNSETATPTNVDLPQVIPKSENSSQPAKKAKGAAKTKQQLQKQQHPKKASFQKLNGISKGADSELSTVPSVTKTQASSSFQDSSQPAGKAEGIREPKVTGKLKQRSPKLQSSKKVAFLRQNAPPKGTDTQTPAVLSPSKTQATLKPKDHHQPLGRAKGVEKQQLPEQPFEKAAFQKQNDTPKGPQPPTVSPIRSSRPPPAKRKKSQSRGNSQLLLS

biological target: T1, ELM2 and SANT domain-containing protein 1 (ELMSAN1) (human (endogenous in HEK293T and Hela.cl1)) (UniProt Q6PJG2); test: affinity purification with mass spectrometry; HEK293T nuclear extract precipitated with 5 µg rabbit anti-ELMSAN1 antibody and protein A magnetic beads, eluted with 0.5 M ammonium hydroxide, LC-MS/MS; controls water or normal rabbit IgG; enrichment by spectral counts and SAINT (FC-A > 1); four experiments
T1 sequence: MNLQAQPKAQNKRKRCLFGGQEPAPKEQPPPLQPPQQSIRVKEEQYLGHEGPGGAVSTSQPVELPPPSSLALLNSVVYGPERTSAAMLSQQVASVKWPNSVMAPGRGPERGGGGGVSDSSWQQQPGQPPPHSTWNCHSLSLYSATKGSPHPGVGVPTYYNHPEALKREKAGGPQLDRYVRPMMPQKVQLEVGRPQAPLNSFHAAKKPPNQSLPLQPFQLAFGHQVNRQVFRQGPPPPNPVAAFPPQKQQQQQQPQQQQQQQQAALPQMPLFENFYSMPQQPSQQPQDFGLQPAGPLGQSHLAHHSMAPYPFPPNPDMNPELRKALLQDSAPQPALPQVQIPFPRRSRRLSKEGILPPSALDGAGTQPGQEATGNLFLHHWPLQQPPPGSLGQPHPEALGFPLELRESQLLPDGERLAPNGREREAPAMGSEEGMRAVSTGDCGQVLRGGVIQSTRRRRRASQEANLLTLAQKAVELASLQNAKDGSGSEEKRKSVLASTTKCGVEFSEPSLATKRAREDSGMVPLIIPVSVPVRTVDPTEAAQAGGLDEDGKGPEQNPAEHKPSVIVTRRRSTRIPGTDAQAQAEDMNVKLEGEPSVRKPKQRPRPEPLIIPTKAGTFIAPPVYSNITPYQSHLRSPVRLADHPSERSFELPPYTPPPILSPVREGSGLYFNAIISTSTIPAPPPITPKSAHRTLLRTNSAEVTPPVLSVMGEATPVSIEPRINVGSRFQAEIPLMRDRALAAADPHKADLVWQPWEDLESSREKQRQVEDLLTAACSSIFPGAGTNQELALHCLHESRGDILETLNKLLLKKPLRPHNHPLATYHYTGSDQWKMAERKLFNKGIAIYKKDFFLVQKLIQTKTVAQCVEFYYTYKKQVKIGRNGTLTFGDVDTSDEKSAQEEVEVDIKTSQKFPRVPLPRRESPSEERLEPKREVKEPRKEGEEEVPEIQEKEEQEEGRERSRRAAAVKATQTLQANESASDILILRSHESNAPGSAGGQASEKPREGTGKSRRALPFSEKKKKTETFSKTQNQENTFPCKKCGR

| Binder | binding |
| --- | --- |
| B1 | binds |
| B2 | binds |
| B3 | binds |
| B4 | binds |
| B5 | binds |
| B6 | binds |
